These are yes or no findings as the source states them, for the method shown. Some results given as binding are weak or reduced against the parent protein; the word gives no strength.
Columns and labels:
[1] = target: domain III of West Nile Virus envelope protein (recombinant, refolded) (West Nile Virus (NY1999 strain)) (UniProt Q9Q6P4); experiment: co-crystal structure
[2] = target: domain III of West Nile Virus envelope protein (recombinant, refolded) (West Nile Virus (NY1999 strain)) (UniProt Q9Q6P4); experiment: X-ray crystal structure of the complex, 2.5 Å
[3] = target: domain III of West Nile Virus envelope protein (recombinant, refolded) (West Nile Virus (NY1999 strain)) (UniProt Q9Q6P4); experiment: complex formation in solution, isolated by gel filtration
[4] = target: domain III of West Nile Virus envelope protein (recombinant, refolded) (West Nile Virus (NY1999 strain)) (UniProt Q9Q6P4); experiment: competition with WNV convalescent antibodies for DIII binding; method and form of DIII not described
[5] = target: WNV E (residues 296-415) displayed on the surface of yeast as Aga2 fusion protein (West Nile Virus) (UniProt Q9Q6P4); experiment: flow cytometry on yeast displaying WNV DIII
[6] = target: WNV E ectodomain (residues 1-415) expressed on yeast (West Nile Virus) (UniProt Q9Q6P4); experiment: competition for WNV E binding on yeast, flow cytometry

The chains behind the UniProt entries cited, without tags or fusion partners. Where a name states a change or a piece, a line headed by the entry shows the natural chain unless it says otherwise.
UniProt Q9Q6P4: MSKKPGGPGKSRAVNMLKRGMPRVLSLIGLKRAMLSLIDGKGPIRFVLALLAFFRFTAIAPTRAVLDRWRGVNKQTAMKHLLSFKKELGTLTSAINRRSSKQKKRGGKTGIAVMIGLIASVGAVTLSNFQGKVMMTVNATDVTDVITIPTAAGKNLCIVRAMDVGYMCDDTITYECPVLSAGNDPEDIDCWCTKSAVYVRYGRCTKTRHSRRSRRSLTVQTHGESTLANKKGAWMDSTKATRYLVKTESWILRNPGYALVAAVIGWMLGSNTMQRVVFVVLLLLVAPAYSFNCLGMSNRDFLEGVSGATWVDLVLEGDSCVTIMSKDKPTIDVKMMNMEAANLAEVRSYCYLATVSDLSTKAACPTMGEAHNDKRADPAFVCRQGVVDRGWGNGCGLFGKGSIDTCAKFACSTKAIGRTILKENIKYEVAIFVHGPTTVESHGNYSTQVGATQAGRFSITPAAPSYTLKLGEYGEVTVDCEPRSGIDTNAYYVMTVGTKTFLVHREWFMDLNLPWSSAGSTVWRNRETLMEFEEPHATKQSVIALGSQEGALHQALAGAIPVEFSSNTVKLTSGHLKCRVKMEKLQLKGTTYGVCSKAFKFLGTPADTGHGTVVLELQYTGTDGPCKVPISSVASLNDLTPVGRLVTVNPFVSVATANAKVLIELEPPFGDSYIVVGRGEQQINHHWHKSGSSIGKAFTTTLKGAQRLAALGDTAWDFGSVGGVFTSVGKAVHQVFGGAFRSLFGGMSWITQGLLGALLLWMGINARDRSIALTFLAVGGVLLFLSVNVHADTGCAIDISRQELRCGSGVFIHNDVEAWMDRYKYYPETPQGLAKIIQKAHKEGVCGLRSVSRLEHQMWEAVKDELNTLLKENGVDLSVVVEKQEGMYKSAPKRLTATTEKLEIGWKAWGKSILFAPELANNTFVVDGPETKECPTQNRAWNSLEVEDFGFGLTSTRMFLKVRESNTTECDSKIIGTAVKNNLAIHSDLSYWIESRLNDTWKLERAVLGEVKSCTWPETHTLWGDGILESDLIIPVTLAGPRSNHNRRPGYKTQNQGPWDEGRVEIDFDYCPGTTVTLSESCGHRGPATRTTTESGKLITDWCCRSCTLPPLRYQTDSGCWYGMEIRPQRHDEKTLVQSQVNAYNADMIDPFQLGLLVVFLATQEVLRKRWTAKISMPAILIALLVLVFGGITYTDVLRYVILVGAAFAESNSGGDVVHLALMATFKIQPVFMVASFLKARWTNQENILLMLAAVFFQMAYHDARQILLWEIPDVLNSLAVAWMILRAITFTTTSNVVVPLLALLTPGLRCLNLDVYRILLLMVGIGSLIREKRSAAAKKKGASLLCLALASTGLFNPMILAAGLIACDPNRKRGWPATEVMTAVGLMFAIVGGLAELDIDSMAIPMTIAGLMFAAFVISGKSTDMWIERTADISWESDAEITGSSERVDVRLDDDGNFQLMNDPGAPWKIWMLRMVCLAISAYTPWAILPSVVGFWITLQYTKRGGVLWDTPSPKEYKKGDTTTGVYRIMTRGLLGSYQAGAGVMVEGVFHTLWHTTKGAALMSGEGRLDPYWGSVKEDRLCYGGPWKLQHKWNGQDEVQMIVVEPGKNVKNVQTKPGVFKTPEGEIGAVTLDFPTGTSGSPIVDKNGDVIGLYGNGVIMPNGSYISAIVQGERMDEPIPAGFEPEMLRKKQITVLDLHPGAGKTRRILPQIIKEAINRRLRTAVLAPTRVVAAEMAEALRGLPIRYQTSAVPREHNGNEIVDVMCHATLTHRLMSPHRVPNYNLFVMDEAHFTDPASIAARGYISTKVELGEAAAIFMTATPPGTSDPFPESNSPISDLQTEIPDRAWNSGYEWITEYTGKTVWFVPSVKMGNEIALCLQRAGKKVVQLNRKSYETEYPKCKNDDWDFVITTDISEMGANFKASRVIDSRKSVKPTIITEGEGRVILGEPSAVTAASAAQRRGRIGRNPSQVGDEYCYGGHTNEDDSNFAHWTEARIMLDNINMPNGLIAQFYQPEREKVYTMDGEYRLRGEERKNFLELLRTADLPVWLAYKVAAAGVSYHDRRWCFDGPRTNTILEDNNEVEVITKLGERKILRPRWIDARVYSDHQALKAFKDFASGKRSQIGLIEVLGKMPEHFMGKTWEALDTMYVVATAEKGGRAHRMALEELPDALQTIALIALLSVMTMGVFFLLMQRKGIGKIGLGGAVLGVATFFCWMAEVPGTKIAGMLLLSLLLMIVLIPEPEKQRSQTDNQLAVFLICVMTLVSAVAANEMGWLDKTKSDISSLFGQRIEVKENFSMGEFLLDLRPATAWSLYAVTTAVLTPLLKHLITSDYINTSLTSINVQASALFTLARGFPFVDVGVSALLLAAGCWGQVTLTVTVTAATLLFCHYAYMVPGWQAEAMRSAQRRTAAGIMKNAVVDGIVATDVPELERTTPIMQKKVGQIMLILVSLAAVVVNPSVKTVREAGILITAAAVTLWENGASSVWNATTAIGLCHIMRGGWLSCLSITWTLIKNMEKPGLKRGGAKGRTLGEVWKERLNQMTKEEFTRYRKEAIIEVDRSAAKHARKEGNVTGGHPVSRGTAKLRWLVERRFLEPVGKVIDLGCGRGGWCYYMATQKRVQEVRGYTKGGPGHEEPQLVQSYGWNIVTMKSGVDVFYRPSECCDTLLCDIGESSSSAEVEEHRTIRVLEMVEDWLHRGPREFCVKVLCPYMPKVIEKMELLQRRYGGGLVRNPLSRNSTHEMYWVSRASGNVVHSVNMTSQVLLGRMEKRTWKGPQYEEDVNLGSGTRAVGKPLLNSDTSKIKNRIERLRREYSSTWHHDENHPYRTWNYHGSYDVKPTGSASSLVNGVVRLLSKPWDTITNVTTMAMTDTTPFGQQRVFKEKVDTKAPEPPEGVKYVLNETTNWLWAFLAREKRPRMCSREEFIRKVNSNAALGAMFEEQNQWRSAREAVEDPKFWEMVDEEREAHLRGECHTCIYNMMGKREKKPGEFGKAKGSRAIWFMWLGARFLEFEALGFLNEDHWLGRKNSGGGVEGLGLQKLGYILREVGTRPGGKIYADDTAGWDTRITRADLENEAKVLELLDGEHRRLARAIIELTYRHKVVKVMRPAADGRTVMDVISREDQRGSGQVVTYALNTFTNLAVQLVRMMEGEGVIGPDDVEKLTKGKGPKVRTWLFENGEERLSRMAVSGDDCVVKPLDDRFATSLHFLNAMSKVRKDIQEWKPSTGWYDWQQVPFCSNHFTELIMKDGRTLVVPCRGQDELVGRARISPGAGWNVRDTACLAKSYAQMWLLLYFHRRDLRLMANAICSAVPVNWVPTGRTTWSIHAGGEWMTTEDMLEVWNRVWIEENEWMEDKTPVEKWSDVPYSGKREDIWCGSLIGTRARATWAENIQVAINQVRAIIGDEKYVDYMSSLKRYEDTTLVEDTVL

Measured: binding

B1: Fab fragment of monoclonal antibody E16 (Fab, V domains shown)
VH: QVQLQQSGSELMKPGASVQISCKATGYTFSDYWIEWVKQRPGHGLEWIGILCGTGRTRYNEKLKAMATFTADTSSNTAFMQLSSLTSEDSAVYYCARSASYGDYADYWGHGTTLTVSS
VL: DIVMTQSHKFMSTSVGDRVSITCKASQDVSTAVAWYQQKPGQSPKLLISWASTRHTGVPDRFTGSGSGTDYTLTISSVQAEDLALYYCQQHYTTPLTFGAGTKLELK
binds: [1] | [2] | [3] | [4]

B2: monoclonal antibody E16 (antibody, V domains shown)
VH: QVQLQQSGSELMKPGASVQISCKATGYTFSDYWIEWVKQRPGHGLEWIGILCGTGRTRYNEKLKAMATFTADTSSNTAFMQLSSLTSEDSAVYYCARSASYGDYADYWGHGTTLTVSS
VL: DIVMTQSHKFMSTSVGDRVSITCKASQDVSTAVAWYQQKPGQSPKLLISWASTRHTGVPDRFTGSGSGTDYTLTISSVQAEDLALYYCQQHYTTPLTFGAGTKLELK
binds: [5] | [6]

Source: patent publication US20060115837A1 (WASHINGTON UNIVERSITY, published 2006)
